According to patent US4663068A, “Bleach-stable deodorant perfumes in detergent powders” (priority 1983, dated 1987):
At least one compound was matched to its structure with a doubt left.

Assay: Bleach Stability Test (triangle test after storage with perborate and TAED)
Type: physicochemical
Settings: number of 20 assessors correctly choosing odd one out; 0.2% material in powder with perborate and TAED, 45° C. one week; up to 9 = bleach-stable, 10 or more = unstable
Experimental: (i) dosing a perfume material into the standard unperfumed washing powder and incubating the dosed powder at 20° C. in a sealed container for seven days;
(ii) dividing the dosed powder into two portions and adding to each portion sodium perborate tetrahydrate together with either TAED granules or sodium sulphate (to act as an inert filler in place of TAED) to provide test and control formulations having the following constitution: […]
(iii) incubating both test and control powders in sealed containers at 45° C. for a further seven days; and […]
The stability of perfume materials to the presence of a bleaching composition is assessed according to a standard test which involves the exposure of these individual perfume materials to a mixture of sodium perborate tetrahydrate and TAED in a detergent fabric washing powder under standard conditions of storage. […]
100 g samples of each control and test batch of powder containing a selected perfume material are then sealed in containers and stored at 45° C. for one week. Each sample is then assessed in a forced choice triangle test according to the following procedure:
Three samples of powder, either one from the test batch and two from the control batch, or two from the test batch and one from the control batch are then assessed by a panel of 20 assessors who are asked to select by sniffing which of the three samples is the "odd one out". […]

CC(=O)c1cc2c(cc1C)C(C)(C)C(C)CC2(C)C (stereo not shown) [6-Acetyl-1,1,3,4,4,6-hexamethyl-tetrahydro-naphthalene]
BST panel score: 8
